Consider 1 molecule from paper PMC9019556, “Molecular interactions of STAC proteins with skeletal muscle dihydropyridine receptor and excitation‐contraction coupling” (Protein Science : A Publication of the Protein Society, 2022).

Protein sequences, listed by entry. Tags and fused reporters are not part of them. Lines headed by an entry give the natural chain unless they say otherwise; changes in a name come on top.
UniProt P07293: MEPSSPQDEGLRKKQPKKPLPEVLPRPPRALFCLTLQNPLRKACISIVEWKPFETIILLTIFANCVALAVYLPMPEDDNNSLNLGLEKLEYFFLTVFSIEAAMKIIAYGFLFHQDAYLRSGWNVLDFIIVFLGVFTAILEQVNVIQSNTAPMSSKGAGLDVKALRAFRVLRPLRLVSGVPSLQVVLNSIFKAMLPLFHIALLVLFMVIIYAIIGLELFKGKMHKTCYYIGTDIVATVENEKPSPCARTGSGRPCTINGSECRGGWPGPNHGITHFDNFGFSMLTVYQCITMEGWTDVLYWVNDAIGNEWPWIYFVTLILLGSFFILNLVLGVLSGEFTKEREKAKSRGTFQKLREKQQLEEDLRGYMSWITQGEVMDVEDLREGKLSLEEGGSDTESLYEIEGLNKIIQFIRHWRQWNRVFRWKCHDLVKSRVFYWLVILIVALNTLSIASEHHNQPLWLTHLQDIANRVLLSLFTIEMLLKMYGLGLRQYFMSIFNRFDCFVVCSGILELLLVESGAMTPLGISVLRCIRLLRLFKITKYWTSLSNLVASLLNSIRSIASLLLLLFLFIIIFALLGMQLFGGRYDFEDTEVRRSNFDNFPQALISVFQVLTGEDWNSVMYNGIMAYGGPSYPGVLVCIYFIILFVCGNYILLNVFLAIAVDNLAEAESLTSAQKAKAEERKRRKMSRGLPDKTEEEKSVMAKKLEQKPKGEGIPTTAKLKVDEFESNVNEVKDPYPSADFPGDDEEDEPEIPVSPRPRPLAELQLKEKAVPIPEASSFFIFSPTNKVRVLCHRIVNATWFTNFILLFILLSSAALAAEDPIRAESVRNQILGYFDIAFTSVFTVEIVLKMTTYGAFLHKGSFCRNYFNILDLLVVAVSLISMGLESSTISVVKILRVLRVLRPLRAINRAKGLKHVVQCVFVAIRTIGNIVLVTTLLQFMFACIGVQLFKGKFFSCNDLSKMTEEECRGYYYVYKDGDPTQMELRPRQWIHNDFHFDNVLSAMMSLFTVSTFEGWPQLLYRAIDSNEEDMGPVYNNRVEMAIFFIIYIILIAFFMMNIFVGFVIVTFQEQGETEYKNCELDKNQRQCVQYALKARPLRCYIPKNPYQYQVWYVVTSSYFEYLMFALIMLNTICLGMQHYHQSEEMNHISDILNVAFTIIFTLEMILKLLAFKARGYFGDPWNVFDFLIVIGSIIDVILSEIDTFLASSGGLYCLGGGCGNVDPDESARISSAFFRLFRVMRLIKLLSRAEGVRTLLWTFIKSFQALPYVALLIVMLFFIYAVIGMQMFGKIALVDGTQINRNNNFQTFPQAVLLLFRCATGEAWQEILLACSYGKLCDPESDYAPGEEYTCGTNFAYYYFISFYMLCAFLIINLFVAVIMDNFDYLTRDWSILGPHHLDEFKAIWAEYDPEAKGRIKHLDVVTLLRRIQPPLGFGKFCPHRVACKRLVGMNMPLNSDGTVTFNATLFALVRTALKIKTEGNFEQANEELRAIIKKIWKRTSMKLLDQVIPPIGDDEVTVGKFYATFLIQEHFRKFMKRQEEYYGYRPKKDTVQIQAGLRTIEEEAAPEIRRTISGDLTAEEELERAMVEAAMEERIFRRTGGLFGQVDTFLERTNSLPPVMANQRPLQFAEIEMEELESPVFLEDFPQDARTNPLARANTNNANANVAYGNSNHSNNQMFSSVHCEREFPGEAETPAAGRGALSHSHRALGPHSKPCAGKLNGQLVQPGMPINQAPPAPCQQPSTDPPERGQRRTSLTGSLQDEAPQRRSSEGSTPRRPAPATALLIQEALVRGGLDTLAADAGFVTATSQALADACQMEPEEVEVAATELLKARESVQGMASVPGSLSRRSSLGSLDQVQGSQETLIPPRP

This test deals with full-length II–III loop of the skeletal muscle dihydropyridine receptor α1S subunit (UniProt P07293). In words: NMR titration; 1H-15N HSQC of 0.17 mM 15N-labelled II–III loop titrated with STAC3SH3s up to 1:1; 27 mM NaH2PO4, 30 mM Na2HPO4, 200 mM KCl, pH 6.5; 5°C; peak intensities; both purified.

Results are given in words; binding and its absence hold for the method and conditions named. Binding can be weak; no strength is given.

B1: tandem SH3 domains of STAC3 (SH3 and cysteine-rich domain-containing protein 3) (domain or fragment, human)
chain: GFQQSHYFVALYRFKALEKDDLDFPPGEKITVIDDSNEEWWRGKIGEKVGFFPPNFIIRVRAGERVHRVTRSFVGNREIGQITLKKDQIVVQKGDEAGGYVKVYTGRKVGLFPTDFLEEI
notes: human STAC3, tandem SH3 domains (SH3_1 and SH3_2) at the C-terminal end; Used unlabelled (SPR, titrant in NMR) and 15N-labelled (NMR titration with the C3 peptide); also called STAC3SH3s
As for B1, the binding result was “binds”.
